Source: PubChem BioAssay AID540256 (National Center for Advancing Translational Sciences (NCATS), 2011)
The whole screen tested about 300,000 compounds, of which about 3,700 (1.2%) were called active. Inconclusive results, whose numbers are uncertain, are shown with a selection of clear calls. The call rests on the fitted dose curve; tested in HEK293 cells. A potency beside an inconclusive call is a rough fit, not a confirmed value.
On the % scale 0 is the no-effect control and ±100 the full control effect; potency means the concentration at half of the fitted maximal effect.

Experiment: qHTS for Inhibitors of binding or entry into cells for Lassa Virus; further: nearly all actives have a fitted effect of over 50% in size
Conditions: Lassa virus pseudotype entry inhibition, cell reporter; activity change, negative = inhibition: at 37.9 µM (top of the series) unless noted
For Cc1cccc(CC(=O)N2CC(=O)Nc3ccc(Br)cc3C2c2ccc(F)cc2)c1 (centres undefined), the Potency was inconclusive: 5.62 µM [activator, single point]. For c1ccc(-c2ccc(C3=Nn4c(Cn5nnc6ccccc65)nnc4SC3)cc2)cc1, the Potency was active: 11.2 µM. For CCOC(=O)c1cc2c(=Cc3ccc(N(C)C)cc3)c3ccccc3n2[n+]1C, the Potency was active: 11.2 µM. For CCOC(=O)c1[nH]c(C=O)c(C(=O)OCC)c1C, the Potency was inconclusive: 11.2 µM [inhibitor, partial curve, poor fit]. In the case of Cc1cccc(C)c1-n1ncc(C(=O)O)c1C1CCN(C(=O)OC(C)(C)C)CC1, the “activity change, negative = inhibition” value was inactive: 28.6% [at 46.1 µM]. With CCN(CC)CCCN=C1NC(c2cccc(C(F)(F)F)c2)C(C(=O)OC)=C(C)N1CC (centres undefined) the Potency was inconclusive: 0.422 µM [activator, partial curve]. In the case of O=C(c1ccc(Cl)cc1)C1CCN(C(=O)N2CCOCC2)CC1, the “activity change, negative = inhibition” value was inactive: -19.2% [at 14.3 µM]. For COc1ccc(NC2=CC(c3ccc(OC)c(OC)c3)N(c3ccc(OC)cc3)C2=O)cc1 (centres undefined), the Potency was inconclusive: 16.4 µM [inhibitor, single point]. For CCOC(=O)c1c(C)[nH]c(C)c1C(=O)COC(=O)/C=C/c1ccc(OC(F)F)cc1, the Potency was active: 11.2 µM. With COc1ccc(C(C)NCCC(c2ccc(OC(C)C)cc2)c2ccccc2OC)cc1 (centres undefined) the “activity change, negative = inhibition” value was inactive: -25.9% [at 46.1 µM]. With CCC(=O)N1CCCc2cc(S(=O)(=O)N3CCC(C(=O)NCc4ccc(F)cc4)CC3)ccc21 the “activity change, negative = inhibition” value was inactive: -19.6% [at 46.1 µM]. With COc1ccc(OC(C)C(=O)N(C)Cc2nc(-c3cccc(C)c3)no2)cc1 (centres undefined) the Potency was inconclusive: 35.5 µM [inhibitor, single point]. With CC1CC(=S)Nc2ccccc2N1C(=O)Nc1ccccc1 (centres undefined) the Potency was inconclusive: 1.58 µM [activator, single point]. In the case of CCOc1ccc(NC(=O)Cn2cnc3sc(C)c(S(=O)(=O)N4CCN(c5ccccc5OC)CC4)c3c2=O)cc1, the “activity change, negative = inhibition” value was inactive: -22% [at 46.1 µM]. With COc1ccc(NC(=O)c2ccco2)cc1NC(=O)C(C)(C)Oc1ccc(Cl)cc1 the Potency was inconclusive: 20 µM [inhibitor, partial curve, poor fit]. For Cc1c(NS(=O)(=O)c2cc(C(=O)NC(C)c3ccccc3)ccc2Cl)c(=O)n(-c2ccccc2)n1C (centres undefined), the “activity change, negative = inhibition” value was inactive: 2.66%. In the case of COC(=O)c1ccc(Cl)c(NC(=O)CN(c2ccc3c(c2)OCO3)S(C)(=O)=O)c1, the Potency was inconclusive: 0.82 µM [inhibitor, partial curve, poor fit]. In the case of COc1ccc(OC)c(-n2c(C)cc(C=O)c2C)c1, the Potency was inconclusive: 0.794 µM [inhibitor, single point]. With CC(=O)c1ccc(N2CCN(C(=O)CCN3C(=S)NC(C)(C)CC3C)CC2)cc1 (centres undefined) the Potency was inconclusive: 1 µM [inhibitor, single point].
